Paper PMC11221513

Experiments:
Experiment in all cases: EMSA
[1] = biological target: T1, IutR1 (Synechocystis sp. PCC 6803) (UniProt P72595); settings: tbdt: 10 mM Tris-HCl pH 7.5, 50 mM KCl, 1 mM DTT, 0.1% BSA, 5% glycerol, 30 min 30 C, poly(dI-dC) competitor, furA/perR: 10 mM Tris-HCl pH 7.5, 50 mM KCl, 5 mM MgCl2, recombinant protein, residues 1-326, protein details: GST (pET41a), probe letters rebuilt from the primers and the genome
T1 sequence (looked up): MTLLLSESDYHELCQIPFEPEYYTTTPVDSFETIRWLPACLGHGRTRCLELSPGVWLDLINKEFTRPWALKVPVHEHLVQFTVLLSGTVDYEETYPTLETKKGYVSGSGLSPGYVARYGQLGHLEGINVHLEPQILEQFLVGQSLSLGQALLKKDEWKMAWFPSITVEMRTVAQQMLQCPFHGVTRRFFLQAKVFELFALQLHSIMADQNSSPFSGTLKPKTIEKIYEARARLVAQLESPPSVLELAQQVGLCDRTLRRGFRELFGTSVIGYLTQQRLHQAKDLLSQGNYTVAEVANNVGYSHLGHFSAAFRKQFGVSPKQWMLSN

[2] = biological target: T2, IutR2 (Synechocystis sp. PCC 6803) (UniProt P72600); settings: tbdt: 10 mM Tris-HCl pH 7.5, 50 mM KCl, 1 mM DTT, 0.1% BSA, 5% glycerol, 30 min 30 C, poly(dI-dC) competitor; furA/perR: 10 mM Tris-HCl pH 7.5, 50 mM KCl, 5 mM MgCl2; recombinant protein; residues 1-346; protein details: GST (pET41a); label: 5' biotin; probe letters rebuilt from the primers and the genome
T2 sequence (looked up): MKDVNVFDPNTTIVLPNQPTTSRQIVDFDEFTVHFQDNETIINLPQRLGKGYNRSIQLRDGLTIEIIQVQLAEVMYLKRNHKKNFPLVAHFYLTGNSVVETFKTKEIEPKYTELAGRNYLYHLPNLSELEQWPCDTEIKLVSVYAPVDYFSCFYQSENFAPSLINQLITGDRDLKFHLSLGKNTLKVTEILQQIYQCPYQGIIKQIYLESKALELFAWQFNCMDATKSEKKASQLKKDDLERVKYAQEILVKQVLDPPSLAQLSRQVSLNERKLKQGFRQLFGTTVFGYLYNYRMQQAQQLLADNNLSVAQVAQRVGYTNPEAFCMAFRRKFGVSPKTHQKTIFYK

[3] = biological target: T3, IutR3 (Synechocystis sp. PCC 6803) (UniProt P72608); settings: tbdt: 10 mM Tris-HCl pH 7.5, 50 mM KCl, 1 mM DTT, 0.1% BSA, 5% glycerol, 30 min 30 C, poly(dI-dC) competitor; furA/perR: 10 mM Tris-HCl pH 7.5, 50 mM KCl, 5 mM MgCl2; recombinant protein; residues 1-330; protein details: GST (pET41a); label: 5' biotin; probe letters rebuilt from the primers and the genome
T3 sequence (looked up): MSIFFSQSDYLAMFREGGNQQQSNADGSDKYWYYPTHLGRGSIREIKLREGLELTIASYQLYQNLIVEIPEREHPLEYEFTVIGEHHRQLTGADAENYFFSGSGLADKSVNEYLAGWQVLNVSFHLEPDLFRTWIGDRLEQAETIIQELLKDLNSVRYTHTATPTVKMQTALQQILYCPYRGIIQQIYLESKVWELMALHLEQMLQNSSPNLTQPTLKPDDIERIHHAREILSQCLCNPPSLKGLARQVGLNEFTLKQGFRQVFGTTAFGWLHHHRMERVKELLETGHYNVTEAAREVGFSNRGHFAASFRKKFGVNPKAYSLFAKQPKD

| Sequence | binding result ([1]; label: 5' biotin) | binding result [2] | binding result [3] | binding result ([1]; 5 mM Mg2+) |
| --- | --- | --- | --- | --- |
| GCAGGTACCTTTAACCGGGAGAGACTATCAATTACTCAGCATCCACTGTTTAGGGCTGACACCAAACTGTTTGCGAAACGCCGCGGAGAAGTGGCCTAAGTGGCTATAACCCACGTTGTTAGCGACTTCGGCGACAGTGTAATTGCCCTGGGAGAGCAGATCTTTGGCCTGGTGAAGACGTTGTTGGGTCAGATAACCGATTACAGAGGTGCCAAACAGTTCCCGAAAACCACGGCGGAGGGTACGATCACATAACCCCACCTGCTGGGCCAACTCCAAAACGGAAGGAGGGCTTTCCAGTTGGGCAACTAGTCTGGCTCTCGCTTCGTAGATCTTCTCAAGTCGACTTC (double strand) [tbdt1 promoter] | binds | binds | no binding | – |
| GCGAGCGGTACCTTACTGATAATTAATGGATATATTCTAGGGGAAAGCCAAAATGTATTTCTTTGTAGGACGGACTTTTTTCTTTGTGAAACGGACTTTTTAGATCATAACTTTTCTTCTGTCAGAATGAAAAACTGCTTACTACTATTTGTAGAAAATTGTCTTTTGATGGGTTTTGGGGCTAACTCCAAATTTTCGTCTAAATGCCATGCAAAAAGCTTCTGGATTGGTATATCCTACCCTTTGTGCTACCTGGGCCACGGATAAGTTATTATCTGCTAATAATTGCTGAGCCTGTTGCATGCGATAATTATACAGATAACCAAATACGGTCGTGCCAAATAGTTGACGAAAGCCTTGTTTTAGCTTACGCTCATTTAAGCTAACTTGTCGAGATAACTGTGCCAAGGAAGGAGGATCAAGTACTTGTTTGACCAAGATTTCCTGTGCATATTTCACTCTTTCTAAATCGTCTTTTTTTAATTGAGATGCTTTTTTTTCTGATTTAGTAGCATCCATACAATTAAATTGCCAGGCAAATAATTCTAAAGCCTTACTTTCTAAATAAATTTGTTTAATTATGCCTTGATAGGGACATTGATAAATTTGCTGTAATATCTCAGTGACTTTAAGTGTGTTTTTACCTAGTGATAAGTGGAACTTTAAATCACGATCGCCTGTGATTAATTGGTTAATTAAGCTAGGAGCAAAGTTTTCACTTTGATAAAAACAACTGAAATAATCAACAGGAGCATAAACACTAACTAATTTTATTTCAGTATCACATGGCCATTGCTCGAGGTCGACATA (double strand) [tbdt3 promoter] | binds | no binding | no binding | – |
| GCGTCGACGGGAATTATCCAACAGATTTATCTAGAAAGTAAAGTCTGGGAACTCATGGCTCTCCACCTTGAGCAGATGCTACAAAATTCCTCTCCCAACTTGACCCAACCAACCCTTAAACCAGATGATATTGAACGAATTCACCATGCCAGAGAAATTTTATCCCAGTGCCTCTGTAACCCACCTTCCTTAAAAGGATTGGCTCGTCAGGTGGGCTTGAATGAATTTACTCTTAAACAGGGTTTCCGCCAAGTTTTTGGAACTACCGCATTCGGTTGGTTGCACCATCACCGTATGGAAAGGGTCAAAGAATTACTAGAAACGGGCCATTACAACGTCACTGAAGCTGCTCGGGAAGTGGGGTTTTCCAATCGGGGACATTTTGCCGCCTCGTTCCGCAAAAAGTTTGGCGTTAATCCTAAAGCCTATTCATTGTTTGCCAAACAACCTAAAGACTAAAAAATTCCAATTTAGGATCAAAATATTCCCTCCACTGATCAAAGTGATTGCCCGCCGTCCCCGTCTTACCGGTAAAGTATTTGAGAATTAGTTGCAGTTAAGGTTGTTCCTCCTGTGTTATCAGATGCCATGGCCGGCTGTCTCAACTAAGAATTTCAAGCTTTGGGTACCGCGG (double strand) [tbdt4 promoter] | binds | binds | binds | – |
| GGTCATGGTTACCTCTGGCTATCTAAACGACTAAATTTTTCTGAGGGGATGGAGCATTTTTCATCAATGCTTGCCCTCTTTTCTCAGAATAGTTCTGAGATAGAAATAAGTCAAGCTTAAAAATTAATATTTTTTTTATAATTATTCTATCTAATAGTCCTTCTAGAAAATGTTAAGCTAGATAGACTATAGCCAAACAGTGCGGATCATTATCATTGGTGTGCTGGCCAGGACCCATGGTTCCTGAGGTTTGCCCAGAGGGACTTACCCATCAAAAATCAGCGAATGTTGCCGCACCGATGTTAGGAGGAACAGT (double strand) [perR promoter] | – | – | – | binds |
| GTTCTATGGGGGCGCTTAGAAGCAGTCTGGGCGATGGGATCCATCATAGTCCCTTGGCTCAGCAGTTGCAATAGTGGAGTCTTATTGAGAATAGATCCTAGAAAAAGTTTTATTTATCTTCCCCCGTCTGAAAATCTGAACCATGCGACCTTCCGCCCTTATTCCCCCCCAGCGTTATTTTGCCTACCTAACGTGGACCGATATTGAAGCTCTGCCGGATAAGGACAAAACCATTATTATTCAGCCCCTGGGTTCCATTGAACAGCATGGTCCCCATTTACCATTGGTGGTGGATGCAGCCA (double strand) [furA promoter] | – | – | – | binds |

For some assays here: A negative result means that nothing was seen under these conditions. Protein sequences can lack the tags named with them.
